Experimental data: patent CN119219781A
No constants are given. Whether binding was seen depends on the method and setting. Some entries that bind do so weakly or less than the wild type. Where a sequence is shown, tags or fusion partners need not be part of it.

Experiments:
[1] = target: T1, human BTNL2-His重组蛋白 (ACROBiosystems, BT2-H81Q5) (human) (UniProt Q9UIR0); assay: ELISA, BTNL2-His coated at 2 μg/mL, antibody from 10 μg/mL in 4-fold dilutions
T1 sequence (looked up): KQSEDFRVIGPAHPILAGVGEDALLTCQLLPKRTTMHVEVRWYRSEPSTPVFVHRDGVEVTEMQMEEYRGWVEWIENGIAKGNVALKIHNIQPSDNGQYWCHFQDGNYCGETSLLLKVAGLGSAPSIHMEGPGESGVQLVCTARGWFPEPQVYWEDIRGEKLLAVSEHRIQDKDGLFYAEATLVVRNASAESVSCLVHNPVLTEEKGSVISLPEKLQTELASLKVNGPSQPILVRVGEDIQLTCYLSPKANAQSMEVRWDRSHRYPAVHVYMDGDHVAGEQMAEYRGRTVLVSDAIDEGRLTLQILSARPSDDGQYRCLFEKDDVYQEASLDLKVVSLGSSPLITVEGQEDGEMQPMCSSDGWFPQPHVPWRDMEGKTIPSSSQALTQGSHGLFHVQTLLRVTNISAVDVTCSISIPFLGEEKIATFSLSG

[2] = target: T1, human BTNL2-His重组蛋白 (ACROBiosystems, BT2-H81Q5) (human); assay: ELISA (legend of Figure 1)

B1: 小鼠抗人BTNL2单克隆抗体 H2T-3-1-28 (antibody, V domains shown)
VH: EVQLQQSGAELVKPGASVKLSCTASGFNIKDTYMHWVKQRPEQGLEWIGRIDPANGNTKYDPKFQGKATITADTSSNTVYLQLSSLTSEDTAVYYCPRYYGNYLYAMDYWGQGTSVTVSS
VL: DIVMTQSQKVMSTSVGDRVSITCKASQNVRSAVAWFQQKPGQSPKVLIYLASNRHTGVPDRFTGSGSGTDFTLTISNVQSEDLADYFCLQHWNYPLTFGAGTKLELK
binding [1]: binds
binding [2]: binds
